The record followed here is paper PMC7846785.

Protein sequences, listed by entry. Tags and fused reporters are not part of them.
UniProt Q13263: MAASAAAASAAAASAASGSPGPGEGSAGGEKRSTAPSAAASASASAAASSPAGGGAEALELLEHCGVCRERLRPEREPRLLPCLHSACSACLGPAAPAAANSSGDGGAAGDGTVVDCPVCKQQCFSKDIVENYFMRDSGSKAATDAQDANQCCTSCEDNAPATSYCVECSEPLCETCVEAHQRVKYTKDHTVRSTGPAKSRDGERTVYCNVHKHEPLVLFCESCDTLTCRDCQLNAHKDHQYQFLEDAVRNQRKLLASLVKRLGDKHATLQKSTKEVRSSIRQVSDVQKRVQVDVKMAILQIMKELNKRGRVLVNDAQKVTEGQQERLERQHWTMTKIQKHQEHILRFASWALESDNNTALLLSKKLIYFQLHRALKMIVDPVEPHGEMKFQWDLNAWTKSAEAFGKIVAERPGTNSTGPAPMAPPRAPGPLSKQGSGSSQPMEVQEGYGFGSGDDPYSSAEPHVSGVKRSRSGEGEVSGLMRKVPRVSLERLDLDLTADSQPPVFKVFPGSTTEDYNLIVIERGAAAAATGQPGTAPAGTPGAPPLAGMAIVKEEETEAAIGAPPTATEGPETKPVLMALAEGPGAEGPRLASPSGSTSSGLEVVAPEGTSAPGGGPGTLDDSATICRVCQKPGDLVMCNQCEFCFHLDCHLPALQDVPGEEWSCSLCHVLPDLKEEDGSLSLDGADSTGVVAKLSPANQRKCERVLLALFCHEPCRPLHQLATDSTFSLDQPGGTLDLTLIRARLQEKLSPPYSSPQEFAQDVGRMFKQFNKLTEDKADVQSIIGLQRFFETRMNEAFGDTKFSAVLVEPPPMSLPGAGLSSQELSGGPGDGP
UniProt Q9C0K0: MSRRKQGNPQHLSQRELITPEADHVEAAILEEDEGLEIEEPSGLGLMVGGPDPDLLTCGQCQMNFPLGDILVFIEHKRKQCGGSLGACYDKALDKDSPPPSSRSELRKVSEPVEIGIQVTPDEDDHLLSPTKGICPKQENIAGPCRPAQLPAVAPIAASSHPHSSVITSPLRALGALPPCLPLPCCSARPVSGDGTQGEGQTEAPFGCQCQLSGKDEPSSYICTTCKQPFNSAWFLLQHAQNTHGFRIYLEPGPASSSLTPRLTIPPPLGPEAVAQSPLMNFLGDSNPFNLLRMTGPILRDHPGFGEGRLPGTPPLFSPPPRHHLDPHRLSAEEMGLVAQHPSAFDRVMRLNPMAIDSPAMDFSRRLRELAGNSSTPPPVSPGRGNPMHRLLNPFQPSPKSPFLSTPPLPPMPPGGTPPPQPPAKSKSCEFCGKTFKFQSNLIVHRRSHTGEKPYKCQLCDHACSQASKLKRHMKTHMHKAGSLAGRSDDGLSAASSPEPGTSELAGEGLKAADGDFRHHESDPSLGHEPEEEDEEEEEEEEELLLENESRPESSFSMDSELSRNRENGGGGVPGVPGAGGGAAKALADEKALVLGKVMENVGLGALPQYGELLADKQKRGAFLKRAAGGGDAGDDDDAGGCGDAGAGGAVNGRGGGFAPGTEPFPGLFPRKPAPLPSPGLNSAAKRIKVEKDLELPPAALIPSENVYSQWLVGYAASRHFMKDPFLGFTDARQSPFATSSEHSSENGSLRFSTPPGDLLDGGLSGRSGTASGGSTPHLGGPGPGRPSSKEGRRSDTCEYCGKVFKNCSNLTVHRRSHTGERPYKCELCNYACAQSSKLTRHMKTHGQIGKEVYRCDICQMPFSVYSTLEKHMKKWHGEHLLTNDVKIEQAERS
UniProt P04608: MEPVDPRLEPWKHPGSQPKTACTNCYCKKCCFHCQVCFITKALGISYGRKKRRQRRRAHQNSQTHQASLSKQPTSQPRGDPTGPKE

Results are given in words; binding and its absence hold for the method and conditions named. Binding seen in cells or lysates may run through a third protein. Some entries that bind do so weakly or less than the wild type.

In experiment [1] the target is KAP1, endogenous in HEK cells (human (endogenous in HEK)) (UniProt Q13263). Description: co-IP; nuclear protein extract of transfected HEK cells; immunoprecipitation of endogenous KAP1 with antibody-coated protein A/G magnetic beads, overnight at 4 °C; low and high salt washes; Western blot. (Immunoblotting shows a protein as a band on a membrane.)
For another experiment, the target named is flag-KAP1 (UniProt Q13263). Briefly: co-IP; 500 μg nuclear protein extract of HEK cells 48 h after transfection, treated or not with RNase; anti-flag M2 gel; washes with low salt (120 mM NaCl) and high salt (0.5 M NaCl) buffers; Western blot.
In experiment [2] the target is CTIP2, endogenous in microglial cells (human (endogenous in the human microglial cell line)) (UniProt Q9C0K0). Description: co-IP; nuclear protein extract of microglial cells, endogenous proteins; CTIP2 and KAP1 antibodies on protein A/G magnetic beads; Western blot.

As to HIV-1 Tat (from UniProt P04608 1-86), the binding entry (in experiment [1]; in the experiment with flag-KAP1) was “binds” in each case.

Take “KAP1, endogenous in microglial cells (from UniProt Q13263 1-835)”: the binding result in experiment [2] is listed as “binds”.
